The supplement of paper PMC10849652
The other results are listed elsewhere or left out.

Sequences of proteins named here, by UniProt entry; tags and fusion partners are left off. A change or cut given only in a name is not applied to a line headed by its entry.
UniProt O95168, whole entry, looked up: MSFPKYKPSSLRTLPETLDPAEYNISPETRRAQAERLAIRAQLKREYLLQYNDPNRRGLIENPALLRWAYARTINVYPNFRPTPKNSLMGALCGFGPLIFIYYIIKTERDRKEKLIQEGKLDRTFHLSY
UniProt O43776: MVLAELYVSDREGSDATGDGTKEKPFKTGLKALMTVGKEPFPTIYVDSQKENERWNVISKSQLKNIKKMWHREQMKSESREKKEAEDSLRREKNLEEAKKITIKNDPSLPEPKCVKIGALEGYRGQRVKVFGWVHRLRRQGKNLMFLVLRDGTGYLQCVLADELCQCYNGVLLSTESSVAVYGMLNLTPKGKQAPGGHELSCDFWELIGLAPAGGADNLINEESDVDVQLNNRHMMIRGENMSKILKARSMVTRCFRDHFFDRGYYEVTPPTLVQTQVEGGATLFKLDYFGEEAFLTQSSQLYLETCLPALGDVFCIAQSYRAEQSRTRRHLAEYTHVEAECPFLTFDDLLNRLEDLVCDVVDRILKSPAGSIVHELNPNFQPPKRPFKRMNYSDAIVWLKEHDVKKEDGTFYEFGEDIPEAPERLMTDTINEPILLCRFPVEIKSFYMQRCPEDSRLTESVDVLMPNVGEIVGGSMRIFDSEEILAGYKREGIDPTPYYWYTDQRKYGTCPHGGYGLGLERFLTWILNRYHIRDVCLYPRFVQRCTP
UniProt Q13564: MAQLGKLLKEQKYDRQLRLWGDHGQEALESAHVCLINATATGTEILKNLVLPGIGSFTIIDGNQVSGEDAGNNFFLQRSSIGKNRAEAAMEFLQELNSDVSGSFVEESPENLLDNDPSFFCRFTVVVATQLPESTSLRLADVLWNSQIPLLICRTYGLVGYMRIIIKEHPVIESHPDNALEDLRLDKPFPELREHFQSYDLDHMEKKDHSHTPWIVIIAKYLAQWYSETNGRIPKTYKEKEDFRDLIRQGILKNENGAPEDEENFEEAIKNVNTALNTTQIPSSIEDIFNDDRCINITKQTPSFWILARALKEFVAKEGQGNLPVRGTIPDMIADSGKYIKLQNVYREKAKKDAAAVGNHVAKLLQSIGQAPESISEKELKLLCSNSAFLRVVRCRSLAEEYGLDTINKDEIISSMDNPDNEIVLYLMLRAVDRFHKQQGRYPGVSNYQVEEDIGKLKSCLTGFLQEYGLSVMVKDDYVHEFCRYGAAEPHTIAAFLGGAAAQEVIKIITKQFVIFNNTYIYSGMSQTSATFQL
UniProt Q4G0T1: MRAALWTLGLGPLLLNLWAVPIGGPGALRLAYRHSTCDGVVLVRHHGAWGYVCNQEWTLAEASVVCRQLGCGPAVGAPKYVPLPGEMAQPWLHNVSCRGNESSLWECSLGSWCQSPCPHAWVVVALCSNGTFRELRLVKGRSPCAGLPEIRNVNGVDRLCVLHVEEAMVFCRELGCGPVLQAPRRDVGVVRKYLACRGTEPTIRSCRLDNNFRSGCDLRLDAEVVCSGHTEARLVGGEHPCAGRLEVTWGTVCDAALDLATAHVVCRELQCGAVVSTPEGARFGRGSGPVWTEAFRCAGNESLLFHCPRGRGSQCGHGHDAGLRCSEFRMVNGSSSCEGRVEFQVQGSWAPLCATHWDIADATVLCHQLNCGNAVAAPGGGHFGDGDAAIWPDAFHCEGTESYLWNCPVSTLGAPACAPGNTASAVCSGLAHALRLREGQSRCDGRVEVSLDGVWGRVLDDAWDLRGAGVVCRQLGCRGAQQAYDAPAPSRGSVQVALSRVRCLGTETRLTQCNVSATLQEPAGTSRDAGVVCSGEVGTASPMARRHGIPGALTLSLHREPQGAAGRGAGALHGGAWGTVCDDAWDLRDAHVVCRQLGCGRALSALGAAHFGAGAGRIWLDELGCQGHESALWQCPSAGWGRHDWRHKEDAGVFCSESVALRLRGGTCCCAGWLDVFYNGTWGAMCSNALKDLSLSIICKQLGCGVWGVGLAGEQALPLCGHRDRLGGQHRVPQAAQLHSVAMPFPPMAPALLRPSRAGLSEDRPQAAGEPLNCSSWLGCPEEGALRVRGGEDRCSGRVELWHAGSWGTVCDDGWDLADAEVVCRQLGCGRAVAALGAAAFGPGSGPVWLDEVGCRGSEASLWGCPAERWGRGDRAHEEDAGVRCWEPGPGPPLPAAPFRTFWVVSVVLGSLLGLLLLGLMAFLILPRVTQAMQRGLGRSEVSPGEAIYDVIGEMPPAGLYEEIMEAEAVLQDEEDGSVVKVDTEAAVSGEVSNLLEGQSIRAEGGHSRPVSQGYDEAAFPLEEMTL
UniProt Q6XQN6: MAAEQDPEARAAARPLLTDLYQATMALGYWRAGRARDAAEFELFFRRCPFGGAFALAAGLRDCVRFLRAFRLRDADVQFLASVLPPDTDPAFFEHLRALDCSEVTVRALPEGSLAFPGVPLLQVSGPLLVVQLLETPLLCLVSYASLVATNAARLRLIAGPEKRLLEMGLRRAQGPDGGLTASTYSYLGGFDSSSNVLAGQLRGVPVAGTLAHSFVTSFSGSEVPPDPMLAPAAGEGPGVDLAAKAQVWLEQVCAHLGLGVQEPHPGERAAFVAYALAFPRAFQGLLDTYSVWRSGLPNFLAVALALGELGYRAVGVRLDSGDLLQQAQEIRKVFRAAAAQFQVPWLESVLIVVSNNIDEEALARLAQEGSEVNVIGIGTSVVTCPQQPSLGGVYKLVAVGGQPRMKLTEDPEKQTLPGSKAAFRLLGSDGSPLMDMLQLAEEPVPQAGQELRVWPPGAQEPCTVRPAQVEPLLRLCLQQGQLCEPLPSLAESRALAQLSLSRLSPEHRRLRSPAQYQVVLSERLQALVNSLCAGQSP
UniProt Q69YL0: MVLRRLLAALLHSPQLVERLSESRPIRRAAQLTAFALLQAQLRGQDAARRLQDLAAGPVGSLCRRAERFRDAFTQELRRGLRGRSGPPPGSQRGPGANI
UniProt Q5VZE5: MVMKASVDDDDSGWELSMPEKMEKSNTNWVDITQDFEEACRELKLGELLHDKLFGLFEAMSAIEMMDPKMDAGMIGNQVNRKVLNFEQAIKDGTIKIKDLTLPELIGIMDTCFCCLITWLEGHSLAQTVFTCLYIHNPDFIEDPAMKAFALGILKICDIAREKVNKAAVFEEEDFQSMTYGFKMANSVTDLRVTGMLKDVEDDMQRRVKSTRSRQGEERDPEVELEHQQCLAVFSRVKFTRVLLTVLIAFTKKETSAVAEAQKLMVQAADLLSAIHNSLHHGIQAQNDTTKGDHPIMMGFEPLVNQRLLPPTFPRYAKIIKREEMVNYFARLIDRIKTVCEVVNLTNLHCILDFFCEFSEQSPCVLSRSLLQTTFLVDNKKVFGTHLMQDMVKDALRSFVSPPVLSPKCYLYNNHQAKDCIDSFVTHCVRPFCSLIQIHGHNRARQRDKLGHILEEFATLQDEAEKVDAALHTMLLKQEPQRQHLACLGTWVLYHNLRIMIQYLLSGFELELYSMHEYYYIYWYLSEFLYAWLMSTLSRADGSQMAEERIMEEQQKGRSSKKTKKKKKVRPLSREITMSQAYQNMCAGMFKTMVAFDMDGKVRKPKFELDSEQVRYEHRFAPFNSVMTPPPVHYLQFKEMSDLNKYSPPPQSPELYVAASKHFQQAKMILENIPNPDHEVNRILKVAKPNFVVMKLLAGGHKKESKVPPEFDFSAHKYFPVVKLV
UniProt Q9Y5N5: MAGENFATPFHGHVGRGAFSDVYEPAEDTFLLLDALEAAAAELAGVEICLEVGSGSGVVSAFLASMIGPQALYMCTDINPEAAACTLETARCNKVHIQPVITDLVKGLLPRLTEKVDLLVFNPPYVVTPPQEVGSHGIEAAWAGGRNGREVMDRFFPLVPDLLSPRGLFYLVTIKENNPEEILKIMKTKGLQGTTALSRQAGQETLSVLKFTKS
UniProt O95169, whole entry, looked up: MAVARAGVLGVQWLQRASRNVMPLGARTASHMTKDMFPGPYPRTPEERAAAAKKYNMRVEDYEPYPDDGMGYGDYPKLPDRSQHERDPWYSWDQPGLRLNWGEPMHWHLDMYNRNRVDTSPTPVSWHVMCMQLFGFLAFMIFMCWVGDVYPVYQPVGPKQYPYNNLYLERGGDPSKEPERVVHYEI
UniProt Q6P582, whole entry, looked up: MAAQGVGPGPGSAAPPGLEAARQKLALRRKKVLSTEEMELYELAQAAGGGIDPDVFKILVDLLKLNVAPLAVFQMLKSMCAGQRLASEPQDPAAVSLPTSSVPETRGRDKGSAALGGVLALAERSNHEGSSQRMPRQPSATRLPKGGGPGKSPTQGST
UniProt A2RRP1: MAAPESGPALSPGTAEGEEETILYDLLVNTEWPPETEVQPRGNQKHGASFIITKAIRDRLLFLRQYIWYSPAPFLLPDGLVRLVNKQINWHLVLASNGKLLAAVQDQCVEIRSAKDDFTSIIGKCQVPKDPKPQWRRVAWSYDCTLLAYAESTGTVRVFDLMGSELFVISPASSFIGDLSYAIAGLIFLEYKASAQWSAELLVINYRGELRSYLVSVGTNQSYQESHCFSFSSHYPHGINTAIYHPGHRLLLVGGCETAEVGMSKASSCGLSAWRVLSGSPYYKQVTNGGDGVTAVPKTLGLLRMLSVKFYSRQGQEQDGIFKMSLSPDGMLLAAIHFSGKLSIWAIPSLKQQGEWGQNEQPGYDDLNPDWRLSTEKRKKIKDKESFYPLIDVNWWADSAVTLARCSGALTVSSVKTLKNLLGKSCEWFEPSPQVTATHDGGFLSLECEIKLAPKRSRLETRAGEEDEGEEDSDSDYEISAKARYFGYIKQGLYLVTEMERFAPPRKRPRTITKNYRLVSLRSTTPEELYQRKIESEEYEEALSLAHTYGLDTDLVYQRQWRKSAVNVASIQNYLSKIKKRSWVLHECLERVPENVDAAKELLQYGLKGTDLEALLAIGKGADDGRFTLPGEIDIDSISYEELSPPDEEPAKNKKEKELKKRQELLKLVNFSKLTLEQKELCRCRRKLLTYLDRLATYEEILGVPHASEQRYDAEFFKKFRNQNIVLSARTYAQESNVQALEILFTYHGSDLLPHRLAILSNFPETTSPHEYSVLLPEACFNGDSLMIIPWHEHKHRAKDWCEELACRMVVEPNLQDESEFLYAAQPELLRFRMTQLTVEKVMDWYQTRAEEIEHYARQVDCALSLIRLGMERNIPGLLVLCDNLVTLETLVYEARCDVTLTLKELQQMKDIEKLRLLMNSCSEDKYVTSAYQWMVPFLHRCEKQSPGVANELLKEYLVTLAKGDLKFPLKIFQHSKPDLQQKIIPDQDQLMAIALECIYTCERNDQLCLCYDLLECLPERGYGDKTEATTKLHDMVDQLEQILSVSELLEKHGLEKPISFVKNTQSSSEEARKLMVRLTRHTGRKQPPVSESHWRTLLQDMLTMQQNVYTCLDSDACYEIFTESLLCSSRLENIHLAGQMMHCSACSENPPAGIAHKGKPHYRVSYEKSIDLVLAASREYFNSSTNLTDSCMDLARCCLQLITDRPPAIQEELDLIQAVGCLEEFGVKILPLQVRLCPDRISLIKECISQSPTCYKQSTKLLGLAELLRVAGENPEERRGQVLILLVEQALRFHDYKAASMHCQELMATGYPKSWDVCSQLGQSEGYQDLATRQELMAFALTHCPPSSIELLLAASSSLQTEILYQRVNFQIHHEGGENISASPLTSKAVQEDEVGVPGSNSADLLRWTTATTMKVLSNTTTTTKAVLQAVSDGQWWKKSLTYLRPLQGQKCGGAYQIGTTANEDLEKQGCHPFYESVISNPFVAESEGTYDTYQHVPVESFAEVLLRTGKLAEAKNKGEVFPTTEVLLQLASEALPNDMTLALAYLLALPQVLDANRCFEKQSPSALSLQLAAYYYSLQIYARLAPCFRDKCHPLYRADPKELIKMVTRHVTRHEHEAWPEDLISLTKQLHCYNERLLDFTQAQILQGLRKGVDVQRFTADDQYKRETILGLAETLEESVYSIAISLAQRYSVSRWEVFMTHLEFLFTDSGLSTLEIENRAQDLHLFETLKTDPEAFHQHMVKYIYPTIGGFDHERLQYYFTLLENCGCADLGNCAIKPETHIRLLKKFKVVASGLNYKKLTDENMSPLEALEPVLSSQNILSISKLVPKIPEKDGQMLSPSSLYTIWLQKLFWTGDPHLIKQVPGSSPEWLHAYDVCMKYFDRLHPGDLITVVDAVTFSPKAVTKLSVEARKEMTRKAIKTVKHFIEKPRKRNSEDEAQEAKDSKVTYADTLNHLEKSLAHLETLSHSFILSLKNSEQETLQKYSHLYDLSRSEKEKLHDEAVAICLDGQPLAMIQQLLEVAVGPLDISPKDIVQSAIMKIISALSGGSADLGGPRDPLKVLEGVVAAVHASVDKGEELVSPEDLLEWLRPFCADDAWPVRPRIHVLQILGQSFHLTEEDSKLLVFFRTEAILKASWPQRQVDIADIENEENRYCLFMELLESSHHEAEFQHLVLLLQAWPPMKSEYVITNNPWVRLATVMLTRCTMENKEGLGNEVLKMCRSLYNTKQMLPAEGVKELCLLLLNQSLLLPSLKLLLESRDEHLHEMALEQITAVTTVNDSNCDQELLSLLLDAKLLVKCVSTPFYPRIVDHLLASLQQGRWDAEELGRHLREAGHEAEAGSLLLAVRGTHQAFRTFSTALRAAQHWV

How the values were obtained:
Experiment in all cases: log2 fold change, soluble protein after heating vs DMSO (PISA); higher = thermal stabilisation; K562 cells, 10 uM, 30 min; active = over 0.2 and 3.5 SD of the protein, either way, in both replicates (recomputed)
[1] = compound: NC(=O)Nc1cc(-c2cccc(F)c2)sc1C(=O)N[C@H]1CCCNC1
In short: (§1)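 Thermal stability values are relative to control samples and come from duplicates. They are expressed as log2 fold changes. For measurement, K562 cells (2×10^6 cells/mL) received 10 μM compound for 30 min, and aliquots were heated for 3 min over 48°C-58°C, pooled, and extracted at 4°C in PBS with 0.5% NP-40. Soluble protein, the supernatant after 21,000xg for 90 min, was quantified by TMTpro 16plex LC-MS/MS with equalised channel sums.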

[2] = compound: NC(=O)c1cnc(N[C@@H]2CCCC[C@@H]2N)nc1Nc1cccc(-n2nccn2)c1
In short: as §1

[3] = compound: NC1(c2ccc(-c3nc4ccn5c(=O)[nH]nc5c4cc3-c3ccccc3)cc2)CCC1
In short: as §1

[4] = compound: NCC(=O)Nc1ccc(-n2nc(C(F)(F)F)cc2-c2ccc3c(ccc4ccccc43)c2)cc1
In short: as §1

entinostat = compound: Nc1ccccc1NC(=O)c1ccc(CNC(=O)OCc2cccnc2)cc1 [entinostat]
In short: as §1

vorinostat = compound: O=C(CCCCCCC(=O)Nc1ccccc1)NO [vorinostat]
In short: as §1

citarinostat = compound: O=C(CCCCCCNC(=O)c1cnc(N(c2ccccc2)c2ccccc2Cl)nc1)NO [citarinostat]
In short: as §1

silmitasertib = compound: O=C(O)c1ccc2c(c1)nc(Nc1cccc(Cl)c1)c1ccncc12 [silmitasertib]
In short: as §1

[5] = compound: O=C1NC(=O)C(c2cnc3ccccn23)=C1c1cn2c3c(cc(F)cc13)CN(C(=O)N1CCCCC1)CC2
In short: as §1

[6] = compound: c1cc(OCCN2CCCCC2)cc(-c2n[nH]c3ccc(-c4nnc[nH]4)cc23)c1
In short: as §1

Measured: log2 fold change

NAA20 (UniProt P61599)
inactive: [1] -0.036 | [2] -0.019 | [3] -0.112 | [4] -0.01 | entinostat 0.022 | vorinostat 0.006 | citarinostat -0.025 | silmitasertib 0 | [5] -0.004 | [6] -0.056

NDUFB4 (UniProt O95168)
inactive: [1] 0.003 | [2] 0.07 | [3] 0.059 | [4] 0 | entinostat 0.048 | vorinostat -0.022 | citarinostat -0.015 | silmitasertib -0.122 | [5] -0.068 | [6] -0.022

NARS1 (UniProt O43776)
inactive: [1] -0.013 | [2] 0.007 | [3] 0.091 | [4] 0.03 | entinostat -0.016 | vorinostat -0.005 | citarinostat -0.048 | silmitasertib -0.013 | [5] -0.015 | [6] -0.007

NCAPG2 isoform 2 (UniProt Q86XI2)
inactive: [1] 0.03 | [2] -0.08 | [3] -0.049 | [4] 0.119 | entinostat 0.054 | vorinostat 0.362 | citarinostat 0.074 | silmitasertib 0.014 | [5] 0.151 | [6] -0.132

NAE1 (UniProt Q13564)
inactive: [1] -0.078 | [2] -0.019 | [3] -0.113 | [4] -0.004 | entinostat 0.003 | vorinostat 0.049 | citarinostat 0.063 | silmitasertib 0.001 | [5] -0.028 | [6] -0.064

NDUFS7 (UniProt O75251)
inactive: [1] -0.025 | [2] -0.079 | [3] -0.113 | [4] -0.057 | entinostat -0.011 | vorinostat 0.103 | citarinostat 0.013 | silmitasertib -0.003 | [5] -0.066 | [6] -0.027

NECTIN2 (UniProt Q92692)
inactive: [1] 0 | [2] 0.107 | [3] 0.056 | [4] 0.099 | entinostat -0.029 | vorinostat -0.041 | citarinostat 0.034 | silmitasertib -0.081 | [5] -0.03 | [6] -0.006

NADK2 (UniProt Q4G0N4)
inactive: [1] 0.015 | [2] -0.024 | [3] -0.022 | [4] -0.028 | entinostat -0.017 | vorinostat -0.035 | citarinostat 0.007 | silmitasertib -0.029 | [5] -0.002 | [6] -0.025

MYO9B (UniProt Q13459)
inactive: [1] -0.043 | [2] -0.011 | [3] 0.001 | [4] -0.042 | entinostat 0.018 | vorinostat -0.017 | citarinostat 0.038 | silmitasertib 0.156 | [5] 0.162 | [6] -0.135

NA isoform 3 (UniProt Q4G0T1)
inactive: [1] -0.114 | [2] -0.207 | [3] 0.015 | [4] -0.02 | entinostat 0.01 | silmitasertib 0.037

NAPRT (UniProt Q6XQN6)
inactive: [1] -0.008 | [2] 0.003 | [3] -0.003 | [4] -0.006 | entinostat -0.023 | vorinostat -0.027 | citarinostat 0.02 | silmitasertib -0.034 | [5] -0.05 | [6] -0.019

NDUFAB1 (UniProt O14561)
inactive: [1] 0.059 | [2] 0.229 | [3] 0.048 | [4] 0.092 | entinostat 0.058 | vorinostat -0.083 | citarinostat -0.192 | silmitasertib -0.097 | [5] -0.115 | [6] -0.228

NARF (UniProt Q9UHQ1)
inactive: [1] -0.052 | [2] -0.034 | [3] -0.008 | [4] -0.012 | entinostat 0.003 | vorinostat -0.044 | citarinostat 0.022 | silmitasertib 0.047 | [5] -0.067 | [6] -0.023

NDST2 (UniProt P52849)
inactive: [1] -0.064 | [2] 0.06 | [3] 0.105 | [4] 0.066 | entinostat 0.136 | silmitasertib 0.03 | [5] -0.024

NDUFB7 (UniProt P17568)
inactive: [1] 0.039 | [2] -0.015 | [3] -0.02 | [4] 0.055 | entinostat -0.013 | vorinostat -0.037 | citarinostat 0.029 | silmitasertib 0 | [5] -0.094 | [6] 0.009

NCBP2AS2 (UniProt Q69YL0)
inactive: [1] -0.21 | [2] -0.161 | [3] -0.312 | [4] -0.157 | entinostat -0.004 | vorinostat 0.024 | citarinostat 0 | silmitasertib 0.024 | [6] -0.046

NDUFAF3 (UniProt Q9BU61)
inactive: [1] -0.026 | [2] -0.009 | [3] -0.067 | [4] 0.113 | entinostat -0.058 | vorinostat -0.009 | citarinostat 0.05 | silmitasertib -0.007 | [5] -0.008 | [6] -0.024

NDUFA13 (UniProt Q9P0J0)
inactive: [1] 0.028 | [2] -0.033 | [3] -0.087 | [4] -0.089 | entinostat 0.063 | vorinostat 0.021 | citarinostat 0.007 | silmitasertib -0.004 | [5] 0.051 | [6] -0.038

NDUFS5 (UniProt O43920)
inactive: [1] -0.032 | [2] -0.044 | [3] -0.027 | [4] -0.002 | entinostat -0.026 | vorinostat 0.062 | citarinostat 0.046 | silmitasertib 0.017 | [5] 0.054 | [6] -0.012

NAA35 (UniProt Q5VZE5)
inactive: [1] -0.012 | [2] -0.045 | [3] -0.082 | [4] 0.019 | entinostat 0.012 | vorinostat 0.074 | citarinostat 0.035 | silmitasertib -0.05 | [5] 0.004 | [6] -0.041

N6AMT1 (UniProt Q9Y5N5)
inactive: [1] -0.032 | [2] -0.019 | [3] -0.02 | [4] -0.022 | entinostat 0.136 | vorinostat -0.033 | citarinostat 0.036 | silmitasertib -0.007 | [5] -0.023 | [6] 0.016

NDUFV2 (UniProt P19404)
inactive: [1] 0.015 | [2] 0.052 | [3] -0.028 | [4] -0.015 | entinostat 0.001 | vorinostat -0.011 | citarinostat 0.01 | silmitasertib 0.025 | [5] -0.079 | [6] -0.01

2 records picked at random from the list so far:
NAA20 (UniProt P61599)
inactive: [1] -0.036 | [2] -0.019 | [3] -0.112 | [4] -0.01 | entinostat 0.022 | vorinostat 0.006 | citarinostat -0.025 | silmitasertib 0 | [5] -0.004 | [6] -0.056

MYO9B (UniProt Q13459)
inactive: [1] -0.043 | [2] -0.011 | [3] 0.001 | [4] -0.042 | entinostat 0.018 | vorinostat -0.017 | citarinostat 0.038 | silmitasertib 0.156 | [5] 0.162 | [6] -0.135

Remaining list, next part.

NDUFB8 (UniProt O95169)
inactive: [1] 0.028 | [2] 0.083 | [3] -0.008 | [4] 0.02 | entinostat 0.113 | vorinostat -0.075 | citarinostat -0.016 | silmitasertib 0.004 | [5] -0.172 | [6] -0.036

NAA50 (UniProt Q9GZZ1)
inactive: [1] 0.007 | [2] 0.035 | [3] -0.028 | [4] 0.008 | entinostat 0.044 | vorinostat 0.049 | citarinostat 0.072 | silmitasertib -0.012 | [5] -0.032 | [6] 0.014

MZT2A (UniProt Q6P582)
inactive: [1] 0.053 | [2] 0.044 | [3] 0.025 | [4] -0.172 | entinostat 0.048 | vorinostat -0.256 | citarinostat -0.01 | silmitasertib 0.007 | [5] -0.089 | [6] -0.118

NBAS (UniProt A2RRP1)
inactive: [1] 0.034 | [2] 0 | [3] -0.006 | [4] -0.028 | entinostat 0.107 | vorinostat 0.082 | citarinostat 0.057 | silmitasertib 0.079 | [5] 0.152 | [6] -0.16

NCLN (UniProt Q969V3)
inactive: [1] 0.007 | [2] 0.022 | [3] -0.034 | [4] 0.014 | entinostat 0.007 | vorinostat 0.012 | citarinostat 0.029 | silmitasertib 0.011 | [5] -0.015 | [6] -0.04

NAGLU (UniProt P54802)
inactive: [1] 0.095 | [2] -0.016 | [3] -0.144 | [4] -0.016 | entinostat 0.017 | vorinostat -0.023 | citarinostat -0.062 | silmitasertib 0.151 | [5] 0.094 | [6] 0.024
